This is an account of results in PMC10721806.

Chains of the proteins cited; added tags and fusions are not shown. Residues count along the entry.
UniProt P41738, residues 10-853: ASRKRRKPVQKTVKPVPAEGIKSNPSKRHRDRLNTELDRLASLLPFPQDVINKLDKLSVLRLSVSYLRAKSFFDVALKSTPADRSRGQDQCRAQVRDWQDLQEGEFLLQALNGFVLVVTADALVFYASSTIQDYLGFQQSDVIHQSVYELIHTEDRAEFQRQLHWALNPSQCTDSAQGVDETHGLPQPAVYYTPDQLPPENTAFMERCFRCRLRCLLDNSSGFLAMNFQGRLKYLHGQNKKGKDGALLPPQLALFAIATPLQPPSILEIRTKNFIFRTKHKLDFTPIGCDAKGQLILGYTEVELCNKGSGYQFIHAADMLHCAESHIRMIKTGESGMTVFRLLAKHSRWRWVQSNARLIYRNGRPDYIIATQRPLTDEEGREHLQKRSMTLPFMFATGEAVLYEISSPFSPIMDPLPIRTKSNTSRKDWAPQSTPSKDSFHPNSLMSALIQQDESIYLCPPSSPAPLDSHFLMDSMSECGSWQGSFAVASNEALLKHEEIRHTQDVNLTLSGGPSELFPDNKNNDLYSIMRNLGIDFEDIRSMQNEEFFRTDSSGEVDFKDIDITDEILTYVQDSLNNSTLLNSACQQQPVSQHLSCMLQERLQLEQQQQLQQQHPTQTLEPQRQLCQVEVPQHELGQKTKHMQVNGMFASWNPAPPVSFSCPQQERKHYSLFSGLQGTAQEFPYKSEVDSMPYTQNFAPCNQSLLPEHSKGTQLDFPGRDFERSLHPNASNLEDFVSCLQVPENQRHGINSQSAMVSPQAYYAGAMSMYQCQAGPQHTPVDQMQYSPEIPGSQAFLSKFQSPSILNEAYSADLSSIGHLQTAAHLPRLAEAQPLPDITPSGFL
UniProt Q6DGG0: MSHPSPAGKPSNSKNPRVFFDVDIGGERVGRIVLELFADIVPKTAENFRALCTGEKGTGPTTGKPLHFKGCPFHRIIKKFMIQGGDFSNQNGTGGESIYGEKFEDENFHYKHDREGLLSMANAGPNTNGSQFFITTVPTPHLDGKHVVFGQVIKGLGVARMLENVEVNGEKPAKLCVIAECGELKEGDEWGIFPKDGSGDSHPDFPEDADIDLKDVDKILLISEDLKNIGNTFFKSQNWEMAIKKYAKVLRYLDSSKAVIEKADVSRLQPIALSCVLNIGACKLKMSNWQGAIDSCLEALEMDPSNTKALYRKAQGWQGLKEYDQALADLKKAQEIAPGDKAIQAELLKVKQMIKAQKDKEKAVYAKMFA

These are yes or no findings as the source states them, for the method shown. Binding seen in cells or lysates may run through a third protein. Some entries that bind do so weakly or less than the wild type.

The target of this experiment is aryl hydrocarbon receptor (AhR) (rat (endogenous in osteoclasts from SD rat BMMCs)) (UniProt P41738). Briefly: co-IP; lysate (IP lysis buffer) of osteoclasts cocultured with sensory neurons transfected with EGFP-tagged Cyp40; antibodies against AhR and GFP with Protein A or Protein G magnetic beads, 4 °C overnight; immunoblotting.

For “EGFP-tagged peptidyl-prolyl cis-trans isomerase D (Cyp40) (from UniProt Q6DGG0 1-370)”, the binding entry is on record as “binds”.
